# Measurements from PubChem BioAssay AID549 (SRMLSC, 2006).
# The list shows a part of the results.
# Experiment: phosphomevalonate kinase inhibition IC50 – biochemical, mevalonate pathway, coupling enzyme counter-screen, dose response (AID 549)
# Settings: PMK enzyme, PK/LDH coupled NADH absorbance 340 nm; measured here: coupling enzymes counter-screen (hexokinase)
smiles,measurement,value
O=P(Nc1nccs1)(c1ccccc1)c1nc2ccccc2s1 (stereo unspecified),IC50,58.7 µM
